Laboratory results taken from US20220175688A1, “POLYMERIC NANOPARTICLES” (Hillstream BioPharma, Inc., priority 2015, published 2022).

System: MCF-7
Test: IC50 in wild-type MCF-7 cells (Example 9)
Assay type: cell-based
Conditions: Homo sapiens, MCF7
Description: Accordingly, MCF-7 cells resistant to PTX were generated by exposure to increasing PTX concentrations (Table 9).

CC(=O)O[C@H]1C(=O)[C@@]2(C)[C@H]([C@H](OC(=O)c3ccccc3)[C@]3(O)C[C@H](OC(=O)[C@H](O)[C@@H](NC(=O)c4ccccc4)c4ccccc4)C(C)=C1C3(C)C)[C@]1(OC(C)=O)CO[C@@H]1C[C@@H]2O [PTX, Paclitaxel]
IC50: 0.027 µM
